From patent publication US9168141B2, “Medical prosthetic devices and implants having improved biocompatibility” (Astra Tech AB, priority 2000, dated 2015)

Assay: Extraction of amelogenin from titanium hydride implant layer, SDS-PAGE / western blot (Example 1)
Details: electrolysis 18 hours, pH 4, 70° C.
Excerpt: A two-chamber electrolysis cell was used to prepare a layer of titanium hydride containing the extracellular matrix molecule amelogenin onto five coin-shaped electropolished titanium implants each with a surface area of 0.6 cm^2 exposed to the electrolyte. Five similar items were used as controls by being present in the electrolyte chamber, but not connected to the electrolysis current. The electrolyte in both chambers was 1M NaCl in sterile water, pH adjusted to pH 4 by the use of HCl, and the initial concentration of amelogenin was 0.1 mg/ml. For electrolysis a voltage of 10 volts at a charge density of 1 mA/cm^2 was used. The temperature of the cathode chamber was set to 70° C. Electrolysis was allowed to progress for 18 hours, after which the titanium implants were removed from the electrolysis cell, washed in sterile water and allowed to air-dry in a desiccator.
After drying the titanium test and control specimens were each washed three times in 1 ml saline at pH 6.5. […] Amelogenin proteins were then detected by an immune assay using an rabbit amelogenin specific primary IgG antibody and a biotin labelled goat anti rabbit IgG secondary antibody.

amelogenin
amelogenins present in extracts from test specimens (western blot) (0.1 mg/ml amelogenin, after three saline washes, boiled in 2×SDS-PAGE sample buffer): significant amounts
amount of protein extracted from titanium hydride surface layer (by comparison with an amelogenin standard): 50 μg/cm^2
